Data taken from patent publication US4782898A, “Determining residual oil saturation using carbon 14 labeled carbon dioxide” (priority 1986, dated 1988).
Structures can show the parent of a compound that is named as a salt.

assay: Applicable temperature range of acid (CO2) generators; format: physicochemical; settings: best estimate of the applicable temperature range for each listed CO2 generator

| SMILES | Temperature Range |
| --- | --- |
| CC(Cl)C(=O)O (stereo not shown) [2-Chloropropionic acid salt] | 120 to 150 °F. |
| O=C(O)CBr [Mono Bromo Acetic acid salt] | 140 to 170 °F. |
| O=C(O)c1ccccc1Cl [Ortho Chlorobenzoic acid salt] | > 300 °F. |
| CC(Cl)CC(=O)O (stereo not shown) [3-Chlorobutyric acid salt] | 80 to 110 °F. |
| O=C(O)CCCl [3-Chloropropionic acid salt] | 100 to 130 °F. |
| O=C(O)C(Cl)Cl [DiChloro Acetic acid salt] | 180 to 250 °F. |
| O=C(O)CCl [Mono Chloro Acetic acid salt] | 160 to 220 °F. |
